These are yes or no findings as the source states them, for the method shown. Some results given as binding are weak or reduced against the parent protein; the word gives no strength.
Molecular target: IL-1 type-1 receptor on HeLa cells (UniProt P14778)
Assay: competition with 125I IL-1β (100 ng/ml) on HeLa cells; γ-counting

Sequences of proteins named here, by UniProt entry; tags and fusion partners are left off. Residues count along the entry.
UniProt P14778, residues 18-569: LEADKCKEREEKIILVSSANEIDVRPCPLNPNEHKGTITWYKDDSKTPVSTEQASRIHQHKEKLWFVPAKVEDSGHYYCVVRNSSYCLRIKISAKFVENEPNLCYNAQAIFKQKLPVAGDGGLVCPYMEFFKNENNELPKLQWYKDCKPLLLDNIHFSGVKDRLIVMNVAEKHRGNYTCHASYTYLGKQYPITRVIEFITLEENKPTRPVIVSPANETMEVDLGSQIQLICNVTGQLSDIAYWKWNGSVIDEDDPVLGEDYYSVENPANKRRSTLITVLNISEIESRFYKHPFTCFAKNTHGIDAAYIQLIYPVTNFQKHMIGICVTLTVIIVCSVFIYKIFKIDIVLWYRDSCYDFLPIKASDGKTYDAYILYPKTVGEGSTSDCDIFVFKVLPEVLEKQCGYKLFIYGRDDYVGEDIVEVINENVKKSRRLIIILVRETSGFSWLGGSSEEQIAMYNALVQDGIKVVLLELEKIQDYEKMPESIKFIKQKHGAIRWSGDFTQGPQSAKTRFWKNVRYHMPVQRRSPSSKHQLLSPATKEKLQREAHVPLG
UniProt P18510, residues 26-177: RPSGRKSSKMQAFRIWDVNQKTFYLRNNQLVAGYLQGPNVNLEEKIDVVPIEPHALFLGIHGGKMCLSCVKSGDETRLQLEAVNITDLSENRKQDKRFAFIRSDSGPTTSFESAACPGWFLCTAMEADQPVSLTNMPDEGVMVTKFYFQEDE

binding: binds
Substance: human IL-1 receptor antagonist (IL-1Ra) (from UniProt P18510 26-177) (ligand)
